Source: patent US20050222062
At least one result comes from cells or an extract, where the contact may be indirect. For some assays here: No signal at the amounts used counts as a negative. For some assays here: Where a protein sequence is shown, tags need not be part of it. For some assays here: Weaker means in comparison with the reference protein, sequence or condition of that experiment.

Tests used:
[1] = target: GATA3 wild type (Mus musculus) (UniProt P23772); assay: EMSA; details: protein in a lysate after overexpression, protein details: expressed in COS cells from pME18S, label: 32P
[2] = target: GATA3 delC (C finger deletion) del304-325 (Mus musculus) (UniProt P23772); assay: EMSA; details: protein in a lysate after overexpression; protein details: expressed in COS cells from pME18S; label: 32P
[3] = target: T1, GATA3 delN (N finger deletion) del263-287 (Mus musculus) (UniProt P23772); assay: EMSA; details: protein in a lysate after overexpression, protein details: expressed in COS cells from pME18S, label: 32P
T1 sequence: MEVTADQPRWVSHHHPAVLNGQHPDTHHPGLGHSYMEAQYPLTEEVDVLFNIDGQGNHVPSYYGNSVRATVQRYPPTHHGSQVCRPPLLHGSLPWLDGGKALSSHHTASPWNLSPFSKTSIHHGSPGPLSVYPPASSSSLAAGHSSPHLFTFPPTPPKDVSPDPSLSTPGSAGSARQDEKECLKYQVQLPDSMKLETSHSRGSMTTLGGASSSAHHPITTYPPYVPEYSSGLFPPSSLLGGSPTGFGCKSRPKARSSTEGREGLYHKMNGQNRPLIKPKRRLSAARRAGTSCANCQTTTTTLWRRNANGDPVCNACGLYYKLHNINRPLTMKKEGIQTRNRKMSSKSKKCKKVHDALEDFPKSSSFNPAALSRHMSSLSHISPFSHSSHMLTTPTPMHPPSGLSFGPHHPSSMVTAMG

[4] = target: GATA3 wild type (Mus musculus) (UniProt P23772); assay: competition with a labelled probe; details: protein in a lysate after overexpression, protein details: expressed in COS cells from pME18S, label: 32P

## GAGGCCTCATTATCTTCATTCATTTCTC (double strand) [HSS2 (CNS-1) GATA sequence]
[1]; supershifted by anti-GATA3 antibody
  binding result: binds
[2]
  binding result: no binding
[3]; text p49 and p60 say delN binds only HSS2
  binding result: binds
[4]; lower affinity than TCRα enhancer, 200-fold unlabeled HSS2 did not fully compete TCRα probe, 100-fold did not fully compete HSS2 probe
  binding result: binds more weakly

## GTTAGAGATAGCATCGCCCCA (double strand) [IL-5 promoter GATA3 site]
[1]
  binding result: binds
[2]
  binding result: no binding
[3]; text p49 and p60
  binding result: no binding

## GAGGTGTCCTCTATCTGATTGTTAGCAA (double strand) [TCRα enhancer GATA3 site]
[1]
  binding result: binds
[2]
  binding result: no binding
[3]; text p49 and p60
  binding result: no binding
[4]; higher affinity than HSS2, 50-fold unlabeled TCRα enhancer competed TCRα probe and almost all HSS2 probe binding
  binding result: binds
